Record: PubChem BioAssay AID1259254 (NCATS, 2017)
Assay: 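Genome-wide screen for genes that prevent DNA re-replication in cancer cells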 (primary screen). Cell system: human HCT116 colorectal cancer cells. Reagents: single siRNA against human genes. Duration: 3 days. Read-out: 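Nuclei stained with Hoechst and imaged; cell-cycle phase assigned by DNA content; G2 share scaled per plate, non-targeting siRNA 0%, GMNN siRNA 100%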. Reading the numbers: G2 robust z-score and G2 cells, % of GMNN control: higher = more G2 cells, more excess DNA replication; raw share of cells in G2: higher = larger share of cells with G2 DNA content. Active means: 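Active siRNAs have a G2 robust z of 5 or more median absolute deviations over the median, which in these data means about 38% or higher of GMNN control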.
This is an unselected part of about 59,000 reagents tested. Of all reagents, about 1,550 (2.6%) were called active. 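G2 share is only a proxy for re-replication; each gene was hit by three separate siRNAs, and active genes were retested.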 The raw values are shown without normalisation. A number with no mark means an inactive call. Reagents against one gene are numbered here. Not stated in the record: the amount of reagent.

gene	reagent	G2 robust z-score	G2 cells, % of GMNN control	raw share of cells in G2 (%)
GGCX	1	-0.832	-2.88	4.19
GGCX	2	-0.297	0.875	5.6
GGCX	3	-0.233	1.33	4.13
PPDPF	1	-0.86	-3.08	3.24
PPDPF	2	-1.09	-4.67	2.52
PPDPF	3	0.721	8.04	4.82
OOSP2	1	0.505	6.52	5.94
OOSP2	2	-1.19	-5.4	1.28
OOSP2	3	1.28	12	7.03
CD1B	1	2.23	18.7	11.6
CD1B	2	-0.149	1.92	5.69
CD1B	3	-0.697	-1.94	3.43
LUM	1	0.0283	3.17	6.32
LUM	2	-0.88	-3.23	2.95
LUM	3	-0.826	-2.84	2.33
TP53BP2	1	-0.379	0.304	3.58
TP53BP2	2	-0.823	-2.82	3.52
TP53BP2	3	1.41	12.9	7.79
FICD	1	0.069	3.45	6.34
FICD	2	0.403	5.81	6.53
FICD	3	0.126	3.85	4.62
IL32	1	-0.355	0.467	5.54
IL32	2	-0.8	-2.66	2.83
IL32	3	-0.954	-3.74	2.04
PARP8	1	-0.484	-0.438	4.26
PARP8	2	-0.103	2.25	5.29
PARP8	3	-0.461	-0.277	2.3
CNIH4	1	-0.334	0.615	3.01
CNIH4	2	2.95	23.7	16.6
CNIH4	3	-1.11	-4.85	2.11

In a second layout: 2 of the entries above
gene | reagent | G2 robust z-score | G2 cells, % of GMNN control | raw share of cells in G2 (%)
GGCX | 1 | -0.832 | -2.88 | 4.19
GGCX | 2 | -0.297 | 0.875 | 5.6
